Data as given in the supplement of paper PMC6411743.
± gives the standard deviation of the averaged measurements. Only a part is listed here, and it is no random draw.

Amino acid sequences for entries named in this document (tags omitted). A change or cut given only in a name is not applied to a line headed by its entry.
UniProt Q00059: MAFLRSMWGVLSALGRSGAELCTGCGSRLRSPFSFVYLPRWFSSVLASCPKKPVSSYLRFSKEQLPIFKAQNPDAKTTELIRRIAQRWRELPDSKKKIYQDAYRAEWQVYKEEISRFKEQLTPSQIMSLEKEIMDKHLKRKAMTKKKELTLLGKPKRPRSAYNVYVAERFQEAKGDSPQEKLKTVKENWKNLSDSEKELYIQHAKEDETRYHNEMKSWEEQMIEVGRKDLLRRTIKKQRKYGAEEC
UniProt P62937, whole entry, looked up: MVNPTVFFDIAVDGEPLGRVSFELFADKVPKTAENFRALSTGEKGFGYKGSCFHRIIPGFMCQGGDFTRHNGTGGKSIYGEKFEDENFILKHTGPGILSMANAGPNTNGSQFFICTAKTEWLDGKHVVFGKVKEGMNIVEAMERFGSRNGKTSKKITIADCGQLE
UniProt P78356: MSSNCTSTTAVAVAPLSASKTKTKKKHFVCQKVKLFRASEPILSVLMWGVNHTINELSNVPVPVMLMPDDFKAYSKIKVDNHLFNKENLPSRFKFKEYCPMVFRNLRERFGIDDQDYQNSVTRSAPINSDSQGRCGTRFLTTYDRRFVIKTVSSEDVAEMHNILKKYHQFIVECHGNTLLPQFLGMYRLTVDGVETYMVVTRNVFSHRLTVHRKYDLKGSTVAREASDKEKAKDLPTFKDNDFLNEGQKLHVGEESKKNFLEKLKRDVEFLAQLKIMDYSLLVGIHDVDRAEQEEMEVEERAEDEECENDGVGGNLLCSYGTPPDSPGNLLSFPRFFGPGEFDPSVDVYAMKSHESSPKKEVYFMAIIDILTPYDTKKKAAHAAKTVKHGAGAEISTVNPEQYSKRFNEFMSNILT
UniProt P63167, whole entry: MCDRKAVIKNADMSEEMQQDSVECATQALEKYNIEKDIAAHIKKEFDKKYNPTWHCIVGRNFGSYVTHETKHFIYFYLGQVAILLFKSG
UniProt P61011: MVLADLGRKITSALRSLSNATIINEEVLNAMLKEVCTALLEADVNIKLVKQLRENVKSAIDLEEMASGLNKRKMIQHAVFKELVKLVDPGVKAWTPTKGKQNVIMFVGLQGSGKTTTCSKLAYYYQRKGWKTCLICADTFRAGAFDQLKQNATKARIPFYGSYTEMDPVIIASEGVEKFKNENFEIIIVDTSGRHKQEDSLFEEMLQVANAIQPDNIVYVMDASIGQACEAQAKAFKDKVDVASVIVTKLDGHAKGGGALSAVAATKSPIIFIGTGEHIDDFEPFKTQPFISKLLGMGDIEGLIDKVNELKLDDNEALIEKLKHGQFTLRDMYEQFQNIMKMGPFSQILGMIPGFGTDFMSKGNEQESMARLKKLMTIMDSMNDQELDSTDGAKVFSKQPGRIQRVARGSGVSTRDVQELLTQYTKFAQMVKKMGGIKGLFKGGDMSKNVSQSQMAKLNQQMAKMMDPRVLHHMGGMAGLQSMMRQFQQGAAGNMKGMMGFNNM
UniProt P62256: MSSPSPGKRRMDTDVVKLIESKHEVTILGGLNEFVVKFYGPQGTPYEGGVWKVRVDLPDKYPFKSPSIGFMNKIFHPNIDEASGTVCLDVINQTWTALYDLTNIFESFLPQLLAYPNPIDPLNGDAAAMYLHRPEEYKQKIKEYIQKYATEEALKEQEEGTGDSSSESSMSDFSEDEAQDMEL
UniProt Q04837: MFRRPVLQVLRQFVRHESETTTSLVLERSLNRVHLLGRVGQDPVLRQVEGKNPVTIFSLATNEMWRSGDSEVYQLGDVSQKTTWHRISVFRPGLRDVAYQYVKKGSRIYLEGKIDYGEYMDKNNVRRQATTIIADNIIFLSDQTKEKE
UniProt Q01664: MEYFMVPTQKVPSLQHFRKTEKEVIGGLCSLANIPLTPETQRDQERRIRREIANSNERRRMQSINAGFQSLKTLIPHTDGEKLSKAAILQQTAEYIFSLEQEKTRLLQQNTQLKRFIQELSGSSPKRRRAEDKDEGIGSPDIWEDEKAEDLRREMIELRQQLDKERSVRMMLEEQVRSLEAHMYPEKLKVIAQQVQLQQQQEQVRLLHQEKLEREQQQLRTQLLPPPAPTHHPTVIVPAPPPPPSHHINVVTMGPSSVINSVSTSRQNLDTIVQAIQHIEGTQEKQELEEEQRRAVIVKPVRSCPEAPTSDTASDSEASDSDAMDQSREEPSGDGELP
UniProt Q06136: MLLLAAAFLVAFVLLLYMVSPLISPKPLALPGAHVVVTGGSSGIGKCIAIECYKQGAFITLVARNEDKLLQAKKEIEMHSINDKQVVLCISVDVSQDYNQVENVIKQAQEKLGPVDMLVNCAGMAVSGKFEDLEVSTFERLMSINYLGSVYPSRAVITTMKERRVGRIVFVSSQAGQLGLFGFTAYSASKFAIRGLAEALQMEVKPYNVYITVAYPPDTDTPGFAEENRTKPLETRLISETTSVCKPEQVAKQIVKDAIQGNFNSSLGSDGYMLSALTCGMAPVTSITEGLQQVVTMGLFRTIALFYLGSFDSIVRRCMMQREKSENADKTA
UniProt Q05932: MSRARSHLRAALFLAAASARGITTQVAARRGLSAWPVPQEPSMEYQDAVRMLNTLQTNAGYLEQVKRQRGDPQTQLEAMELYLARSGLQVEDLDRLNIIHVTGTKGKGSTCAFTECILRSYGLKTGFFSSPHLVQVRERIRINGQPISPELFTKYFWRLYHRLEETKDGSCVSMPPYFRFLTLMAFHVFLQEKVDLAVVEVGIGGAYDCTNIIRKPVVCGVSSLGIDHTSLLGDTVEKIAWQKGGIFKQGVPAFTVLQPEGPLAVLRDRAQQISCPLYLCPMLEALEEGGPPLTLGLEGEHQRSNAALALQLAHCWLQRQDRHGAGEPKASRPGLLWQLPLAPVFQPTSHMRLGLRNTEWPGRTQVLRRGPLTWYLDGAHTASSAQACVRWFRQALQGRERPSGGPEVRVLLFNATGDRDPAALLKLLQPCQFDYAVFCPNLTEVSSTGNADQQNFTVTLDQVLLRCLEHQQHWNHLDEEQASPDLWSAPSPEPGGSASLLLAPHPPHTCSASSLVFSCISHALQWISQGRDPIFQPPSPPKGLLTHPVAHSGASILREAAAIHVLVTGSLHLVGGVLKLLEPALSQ
UniProt P78371: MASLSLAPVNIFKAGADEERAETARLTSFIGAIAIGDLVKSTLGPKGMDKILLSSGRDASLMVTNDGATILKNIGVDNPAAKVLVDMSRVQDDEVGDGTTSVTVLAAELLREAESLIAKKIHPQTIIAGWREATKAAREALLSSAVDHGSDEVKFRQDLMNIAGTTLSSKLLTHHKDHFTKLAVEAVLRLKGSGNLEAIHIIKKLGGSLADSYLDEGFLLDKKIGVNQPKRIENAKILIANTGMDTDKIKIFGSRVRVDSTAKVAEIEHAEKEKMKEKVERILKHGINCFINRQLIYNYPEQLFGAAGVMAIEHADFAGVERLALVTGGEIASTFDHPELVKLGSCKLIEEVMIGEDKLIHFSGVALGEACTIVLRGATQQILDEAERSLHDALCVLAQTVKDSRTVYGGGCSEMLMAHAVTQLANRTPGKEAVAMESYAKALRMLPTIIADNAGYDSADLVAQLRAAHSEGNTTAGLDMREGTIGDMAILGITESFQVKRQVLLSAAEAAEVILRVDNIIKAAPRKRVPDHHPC
UniProt Q06546: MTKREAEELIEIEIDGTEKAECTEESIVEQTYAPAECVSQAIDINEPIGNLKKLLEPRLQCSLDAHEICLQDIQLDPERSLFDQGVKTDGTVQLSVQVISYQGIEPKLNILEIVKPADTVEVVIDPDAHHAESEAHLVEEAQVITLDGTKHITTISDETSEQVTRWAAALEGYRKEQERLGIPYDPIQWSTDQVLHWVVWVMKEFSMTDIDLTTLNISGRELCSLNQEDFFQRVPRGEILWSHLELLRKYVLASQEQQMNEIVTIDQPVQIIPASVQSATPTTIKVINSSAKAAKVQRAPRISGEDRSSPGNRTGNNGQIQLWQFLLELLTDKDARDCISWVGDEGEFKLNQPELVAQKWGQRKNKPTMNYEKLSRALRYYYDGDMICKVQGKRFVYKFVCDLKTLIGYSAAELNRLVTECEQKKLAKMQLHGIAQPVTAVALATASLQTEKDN
UniProt Q05655: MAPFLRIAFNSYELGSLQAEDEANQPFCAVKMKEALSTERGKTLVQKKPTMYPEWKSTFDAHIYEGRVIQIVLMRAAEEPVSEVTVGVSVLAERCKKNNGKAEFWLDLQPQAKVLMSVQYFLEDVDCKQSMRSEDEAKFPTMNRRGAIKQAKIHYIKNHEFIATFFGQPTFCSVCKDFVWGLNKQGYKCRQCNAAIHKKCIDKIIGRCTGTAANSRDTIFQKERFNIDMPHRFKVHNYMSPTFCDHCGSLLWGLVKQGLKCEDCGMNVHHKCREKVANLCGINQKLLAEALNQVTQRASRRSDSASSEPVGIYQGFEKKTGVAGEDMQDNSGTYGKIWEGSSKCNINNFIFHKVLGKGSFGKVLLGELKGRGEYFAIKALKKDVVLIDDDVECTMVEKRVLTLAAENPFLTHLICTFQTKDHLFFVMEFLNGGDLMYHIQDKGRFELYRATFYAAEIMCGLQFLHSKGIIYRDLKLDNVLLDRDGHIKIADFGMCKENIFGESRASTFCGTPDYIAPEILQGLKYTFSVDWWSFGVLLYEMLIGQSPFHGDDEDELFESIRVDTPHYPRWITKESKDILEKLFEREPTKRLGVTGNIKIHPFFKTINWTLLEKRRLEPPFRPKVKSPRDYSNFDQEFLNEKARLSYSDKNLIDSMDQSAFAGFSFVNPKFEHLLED
UniProt P60604: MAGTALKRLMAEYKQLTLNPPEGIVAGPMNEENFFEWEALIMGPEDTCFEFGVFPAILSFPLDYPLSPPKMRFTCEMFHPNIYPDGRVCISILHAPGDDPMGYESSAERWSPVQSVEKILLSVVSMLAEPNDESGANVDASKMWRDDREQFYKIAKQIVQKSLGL
UniProt Q06945: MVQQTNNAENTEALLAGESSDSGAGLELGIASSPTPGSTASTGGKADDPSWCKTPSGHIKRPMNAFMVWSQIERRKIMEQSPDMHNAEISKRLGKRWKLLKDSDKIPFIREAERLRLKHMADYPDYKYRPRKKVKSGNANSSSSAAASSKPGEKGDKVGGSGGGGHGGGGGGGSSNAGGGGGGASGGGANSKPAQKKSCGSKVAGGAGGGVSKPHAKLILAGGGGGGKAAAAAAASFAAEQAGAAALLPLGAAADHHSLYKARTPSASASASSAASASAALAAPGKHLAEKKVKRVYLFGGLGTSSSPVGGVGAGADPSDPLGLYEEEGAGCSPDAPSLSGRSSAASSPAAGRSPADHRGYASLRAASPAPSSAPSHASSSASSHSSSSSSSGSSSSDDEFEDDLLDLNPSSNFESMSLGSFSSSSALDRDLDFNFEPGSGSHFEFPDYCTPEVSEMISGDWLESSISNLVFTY
UniProt P61225: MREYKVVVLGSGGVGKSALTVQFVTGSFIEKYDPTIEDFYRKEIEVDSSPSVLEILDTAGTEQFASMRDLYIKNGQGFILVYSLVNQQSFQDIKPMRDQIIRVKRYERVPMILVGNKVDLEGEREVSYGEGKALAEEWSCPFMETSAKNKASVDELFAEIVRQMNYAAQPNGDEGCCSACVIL

compound: Nc1ncnc2c1ncn2[C@@H]1O[C@H](COP(=O)(O)OP(=O)(O)NP(=O)(O)O)[C@@H](O)[C@H]1O [adenylyl imidodiphosphate]; test: NP40-soluble protein abundance relative to vehicle (solubility fold change) (ratio); higher = more soluble protein in presence of AMP-PNP; conditions: concentration: 4mM
Outline: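 Crude Jurkat lysate, prepared by Dounce homogenisation, was exposed to eight concentrations from 0.1 to 10 mM for 10 min at room temperature and then 3 min at 37 °C. Solubilisation used 0.8% NP40 with benzonase for 60 min at 4 °C, followed by ultracentrifugation and TMT labelling of the supernatant for LC-MS/MS. After vsn normalisation of intensities, each value is the fold change against the detergent-processed vehicle within each replicate, across three independent experiments.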

Target | NP40-soluble protein abundance
PLCB3 (UniProt Q01970) | 1.04 ± 0.017
MRPS10 (UniProt P82664) | 1.01 ± 0.06
TFAM (UniProt Q00059) | 0.893 ± 0.11
UniProt P62937 and related entries | 1.03 ± 0.18
UniProt P78356 | 1.01 ± 0.012
DSTN (UniProt P60981) | 0.986 ± 0.026
RPS27A (UniProt P62979) | 0.928 ± 0.061

same assay, conditions: concentration: 6mM

Target | NP40-soluble protein abundance
UniProt P63167 | 0.97 ± 0.019
UniProt P78347 and related entries | 1.13 ± 0.043
UniProt P62273 | 0.921 ± 0.044
SRP54 (UniProt P61011) | 1.11 ± 0.053
UniProt P62256 | 1.04 ± 0.012
SSBP1 (UniProt Q04837) | 1.11 ± 0.15
TFAP4 (UniProt Q01664) | 0.957 ± 0.025
UniProt Q06136 and related entries | 0.9914 ± 0.0082
MRPS35 (UniProt P82673) | 0.92 ± 0.17
HMGCS1 (UniProt Q01581) | 0.95 ± 0.019
UniProt P62750 | 0.844 ± 0.064
UniProt Q06787 and related entries | 1.22 ± 0.066
UniProt P56159 and related entries | 0.993 ± 0.032
UniProt P62820 | 0.967 ± 0.02
UniProt P62829 | 0.927 ± 0.023
UniProt Q01085-2 | 0.957 ± 0.037
UniProt Q05932 and related entries | 1.04 ± 0.037
UniProt Q00722 and related entries | 1.01 ± 0.018
UniProt P98095 and related entries | 1.01 ± 0.02

Target | NP40-soluble protein abundance
CCT2 (UniProt P78371) | 0.918 ± 0.086
XIAP (UniProt P98170) | 0.97 ± 0.026
FOXK2 (UniProt Q01167) | 0.981 ± 0.033
GABPA (UniProt Q06546) | 0.9583 ± 0.0071
UniProt Q05655 | 1.04 ± 0.022
UniProt P60604 and related entries | 1.02 ± 0.077
UniProt Q03188 and related entries | 1 ± 0.044
SOX4 (UniProt Q06945) | 1.04 ± 0.025
UniProt P62753 | 0.925 ± 0.052
UniProt P61225 | 0.897 ± 0.015
EIF6 (UniProt P56537) | 0.997 ± 0.014
PLCB3 (UniProt Q01970) | 0.995 ± 0.015
MRPS10 (UniProt P82664) | 0.987 ± 0.049
TFAM (UniProt Q00059) | 0.925 ± 0.12
UniProt P62937 and related entries | 0.856 ± 0.11
UniProt P78356 | 1.04 ± 0.012
DSTN (UniProt P60981) | 1.05 ± 0.076
RPS27A (UniProt P62979) | 0.942 ± 0.056

same assay, conditions: concentration: 8mM

Target | NP40-soluble protein abundance
UniProt P63167 | 0.995 ± 0.041
UniProt P78347 and related entries | 1.12 ± 0.025
UniProt P62273 | 0.806 ± 0.12
SRP54 (UniProt P61011) | 1.13 ± 0.046
UniProt P62256 | 0.994 ± 0.022
SSBP1 (UniProt Q04837) | 1.12 ± 0.059
TFAP4 (UniProt Q01664) | 0.946 ± 0.013
UniProt Q06136 and related entries | 1 ± 0.035
MRPS35 (UniProt P82673) | 0.909 ± 0.12
HMGCS1 (UniProt Q01581) | 0.942 ± 0.025
UniProt P62750 | 0.755 ± 0.07
UniProt Q06787 and related entries | 1.24 ± 0.016
UniProt P56159 and related entries | 0.976 ± 0.034
UniProt P62820 | 0.943 ± 0.049
UniProt P62829 | 0.895 ± 0.016
UniProt Q01085-2 | 0.9409 ± 0.0074
UniProt Q05932 and related entries | 1.02 ± 0.02
UniProt Q00722 and related entries | 1 ± 0.027
UniProt P98095 and related entries | 0.984 ± 0.028

Target | NP40-soluble protein abundance
CCT2 (UniProt P78371) | 0.905 ± 0.1
XIAP (UniProt P98170) | 0.987 ± 0.045
FOXK2 (UniProt Q01167) | 0.961 ± 0.016
GABPA (UniProt Q06546) | 0.9365 ± 0.0039
UniProt Q05655 | 1.034 ± 0.002
UniProt P60604 and related entries | 1.03 ± 0.064
UniProt Q03188 and related entries | 0.976 ± 0.012
SOX4 (UniProt Q06945) | 1.04 ± 0.042
UniProt P62753 | 0.883 ± 0.073
UniProt P61225 | 0.898 ± 0.012
EIF6 (UniProt P56537) | 1.01 ± 0.038
PLCB3 (UniProt Q01970) | 1 ± 0.023
MRPS10 (UniProt P82664) | 0.999 ± 0.077
TFAM (UniProt Q00059) | 0.96 ± 0.022
UniProt P62937 and related entries | 1.01 ± 0.17
UniProt P78356 | 1.04 ± 0.019
DSTN (UniProt P60981) | 1.06 ± 0.05
RPS27A (UniProt P62979) | 0.941 ± 0.087

same assay, conditions: concentration: 10mM

Target | NP40-soluble protein abundance
UniProt P63167 | 0.95878 ± 0.00021
UniProt P78347 and related entries | 1.17 ± 0.036
UniProt P62273 | 0.962 ± 0.09
SRP54 (UniProt P61011) | 1.13 ± 0.082
UniProt P62256 | 1 ± 0.015
SSBP1 (UniProt Q04837) | 1.14 ± 0.1
TFAP4 (UniProt Q01664) | 0.958 ± 0.043
UniProt Q06136 and related entries | 0.991 ± 0.068
MRPS35 (UniProt P82673) | 0.898 ± 0.13
HMGCS1 (UniProt Q01581) | 0.936 ± 0.019
UniProt P62750 | 0.886 ± 0.15
UniProt Q06787 and related entries | 1.36 ± 0.02
UniProt P56159 and related entries | 0.981 ± 0.014
UniProt P62820 | 0.958 ± 0.074
UniProt P62829 | 0.974 ± 0.005
UniProt Q01085-2 | 0.952 ± 0.032
UniProt Q05932 and related entries | 1.04 ± 0.015
UniProt Q00722 and related entries | 0.999 ± 0.052
UniProt P98095 and related entries | 1.03 ± 0.049

Target | NP40-soluble protein abundance
CCT2 (UniProt P78371) | 0.909 ± 0.15
XIAP (UniProt P98170) | 0.985 ± 0.053
FOXK2 (UniProt Q01167) | 0.974 ± 0.057
GABPA (UniProt Q06546) | 0.933 ± 0.023
UniProt Q05655 | 1.065 ± 0.002
UniProt P60604 and related entries | 1.03 ± 0.055
UniProt Q03188 and related entries | 1.01 ± 0.025
SOX4 (UniProt Q06945) | 1.06 ± 0.017
UniProt P62753 | 0.956 ± 0.14
UniProt P61225 | 0.862 ± 0.041
EIF6 (UniProt P56537) | 0.978 ± 0.021
PLCB3 (UniProt Q01970) | 0.991 ± 0.028
MRPS10 (UniProt P82664) | 0.965 ± 0.059
TFAM (UniProt Q00059) | 0.908 ± 0.086
UniProt P62937 and related entries | 0.828 ± 0.073
UniProt P78356 | 1.09 ± 0.051
DSTN (UniProt P60981) | 1.05 ± 0.06
RPS27A (UniProt P62979) | 0.953 ± 0.079
